Laboratory results from the supplement of paper PMC3334620.
Over roughly 33,000 sequences, “E-score (-0.5 to 0.5)” has its median near -8e-05; the highest 2% begin near 0.23. Some of the results follow.

Target: T1, Nrg2 (UniProt P38082)
T1 sequence: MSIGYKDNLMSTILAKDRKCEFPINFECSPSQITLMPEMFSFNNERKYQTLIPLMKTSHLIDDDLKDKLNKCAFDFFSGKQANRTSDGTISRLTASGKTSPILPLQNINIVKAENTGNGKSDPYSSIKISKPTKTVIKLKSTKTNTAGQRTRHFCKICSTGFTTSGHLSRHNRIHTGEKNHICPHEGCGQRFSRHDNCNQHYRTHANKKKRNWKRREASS
Experiment: PBM E-score (8-mer binding enrichment) (E-score (-0.5 to 0.5)); higher = stronger / more preferred TF binding
Conditions: protein concentration: 100 nM; construct: GST-full length
How it was run: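 Using PURExpress in vitro transcription/translation, GST-tagged yeast transcription factors were made in full-length or DNA-binding-domain form. These were applied at about 100-200 nM to double-stranded universal all-10-mer Agilent arrays, and bound protein was detected with fluorescent anti-GST. Scans were normalised with masliner before the Universal PBM Analysis Suite assigned E-scores to ungapped eight-base words pooled with their reverse complements.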

Sequence	PBM E-score
CCATCACA	0.00485
AAGCGCCC	0.0375
AAAGGGTA	0.152
CAAGGGGA	0.127
CGAGTCTA	-0.233
TCAAATCA	-0.0452
AAAAACCT	0.186
CTGCCCGA	-0.0222
AAATCGGC	0.00041
CGGTGACC	-0.219
AGCAACCA	0.179
AGTATTAG	0.273
CAATGTCC	-0.0878
CCATATTC	0.00369
ATCAGCCC	-0.0267
ACCTTCGG	-0.034
CTCGGCGA	0.0899
AAAGGAAA	0.0754
ATGTAACA	0.128
GTGTTTCA	-0.246
AGGAAGGC	-0.222
GCTATAAC	-0.169
GCCTGAAC	-0.211
CTTCAGAA	0.0224
CCCTACGC	-0.0978

As a working copy, part of the list above.
Sequence	PBM E-score
AAAAACCT	0.186
CTGCCCGA	-0.0222
AAATCGGC	0.00041
CGGTGACC	-0.219
AGCAACCA	0.179

The list continues:

Sequence	PBM E-score
CCCCACCC	0.162
GGGCCACC	-0.0295
AAATCTAA	0.00125
AGTTTTGA	0.0128
ACTCCAAC	0.116
GCAGCAAA	0.0947
ACTCTAAT	0.168
GATCCTCC	-0.235
GGGATTGA	0.0443
CACGTGTC	-0.108
GGGCCCAA	0.244
CGGGGGGC	-0.4
GTGCCAGA	-0.111
GGTATGCA	-0.082
CGGTATAC	-0.0175
AGAGGCCT	-0.0985
AAGGTTGC	0.0635
ATCGATGG	-0.00808
CGCTTGGA	0.0295
CAGTATGC	0.0397
AGTGTAAA	0.0642
TATCTCGA	0.0972
GGCTCGAC	-0.0112
GCCTCACC	-0.0884
ACACTCCC	-0.0932

Sequence	PBM E-score
CATTTTCA	0.193
GGTCCGTA	0.0401
CAGGAATA	0.00101
ATTTAATC	0.203
TTCCGAAA	-0.0432
CCAAGTTA	-0.0706
TAAGTACA	-0.00245
ATCATAAA	0.123
GGGTCCAA	0.322
GGAATAAA	0.0515
CGGACCTA	0.0604
GGATGGAA	-0.0686
AATGGCCT	0.0811
AGGAGCCT	-0.331
CACTGGAG	-0.0971
ACAGCGTC	0.0812
ATCAGCAG	0.103
CGGACGCC	-0.238
GCTTGGGA	0.00089
ACATCCGG	-0.0147
CTGGCTTA	-0.124
GGTTCGCA	-0.137
AATTTTAA	0.052
ATTAAATG	0.148
GCGGTGCA	0.0246

Sequence	PBM E-score
ATAGCCAA	0.0578
AATGAGTA	0.139
GGTAAAGA	-0.0308
CTGTACCC	-0.108
CGTCTGAA	-0.151
ACCTTCCG	0.0331
AAATGCCC	-0.0928
ACGATTTG	0.128
CTATTAGC	0.129
AACTGGGT	0.0205
ATCATTTC	0.242
ATACAACG	0.0553
AGTACAAG	0.0113
AACACCAA	0.128
ACAGCACG	0.0899
CGCGTCGA	0.16
AAAGGCAC	-0.0414
ACGTACGT	-0.252
ACTACTCA	0.103
CGGCCTAG	-0.129
CTAAAACC	0.102
ACCGAGCG	-0.101
ACATACGA	0.0374
TCGTTCCA	-0.231
ATGTTTGC	-0.0408

Reprinted at random: six entries already listed, in no set order.
Sequence	PBM E-score
GGTAAAGA	-0.0308
AATGAGTA	0.139
CTGTACCC	-0.108
ACGTACGT	-0.252
TCGTTCCA	-0.231
AAATGCCC	-0.0928

Continuation:

Sequence	PBM E-score
ATTAAAGA	0.157
ACATCGTA	0.025
AGTACTGG	-0.128
GTGATGGA	-0.0813
TCCGTGCA	0.134
TAGTCCAA	-0.0982
AGGCCTGG	-0.167
ACACAGCG	0.179
CGTTCCAC	-0.187
ATAGACTC	-0.26
CAACCTTA	0.0819
CAGACTAC	-0.0891
CTTAATTA	0.146
CAAGCCAA	-0.00536
GAGTAGCA	0.0981
AGTCCATC	-0.151
TATCGGAA	0.0162
CTAGCGAC	-0.0336
AATCCCAG	-0.0069
GTGCCCTA	-0.218
GTCGCTTA	0.0518
CGTCGCGA	0.143
ACCTGGCT	-0.102
AACATGAC	0.158
TCGGCTCA	-0.134

Sequence	PBM E-score
GCCATGGA	0.0938
GAGTACGA	0.0575
GCAGTATA	0.139
GGTCGGTA	-0.00181
AGACTGAT	-0.0162
CACTCTGC	0.0789
CGGGGGCC	-0.325
GTCCGTGA	-0.0209
CGTCAAGC	-0.118
CAAGAAGG	-0.0466
AATGTTCA	0.145
GTGGACCA	0.0574
CGTTTGTC	-0.0352
GATTGCCC	-0.0761
ACTGCTTC	-0.107
CTAACCAC	-0.0626
AGGACTAG	0.0505
GATGCACC	-0.0073
TTCAAGAA	0.0685
TCCTAGCA	-0.201
CCGAATGC	0.111
GGTTGTAA	0.0146
CGGGCCGA	-0.182
GCGGGGAA	0.101
GAAGGCCC	-0.216

Sequence	PBM E-score
CCTTCCCG	-0.122
AGAAAAAG	-0.00443
CTGCCAAG	-0.221
AGTCAGGA	0.0134
TCGAGAAA	-0.0546
AGGGAAGC	-0.0318
ACATAGCA	-0.00783
TAGGAATA	-0.0845
CTATTTAA	0.0579
ACTGCTCG	0.0889
AGTCTGAG	-0.319
ATCGCGGG	0.213
AGTTAAGG	0.0234
ATTTTATG	0.0312
CTACGTGC	-0.0576
AGACATAA	0.021
GCAGAAGA	0.0164
CCAGTACG	-0.131
CCGTATAG	-0.0765
GTCTTTAA	-0.0888
GAGCAGCC	-0.0249
GTATGTCA	0.0885
